Assay results taken from article doi:10.1101/2023.07.07.548106.
These are yes or no findings as the source states them, for the method shown. Some binding calls cover weakened binding; strength is not graded here. Tags and fused reporters may be left off the sequences shown.

Target: T1, human CXCL17 (1-119) with a C-terminal His tag, expressed in CHO-761H cells (human), Q6UXB2
T1 chain: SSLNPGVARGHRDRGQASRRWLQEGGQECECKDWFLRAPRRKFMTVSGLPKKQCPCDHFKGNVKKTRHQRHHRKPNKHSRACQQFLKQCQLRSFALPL
Assay: reducing SDS-PAGE and Western blot
Conditions: remark: other sources report otherwise

binding: binds
B1: human CXCL17 (1-119) with a C-terminal His tag, expressed in CHO-761H cells, Q6UXB2 22-119 (protein)
chain: T1 chain
